Record: PubChem BioAssay AID1259254 (NCATS, 2017)

Aim: 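Gene knock-downs that lead to re-replication, shown by excess G2 DNA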 (primary screen)
Cells: human HCT116 colorectal cancer cells
Reagents: single siRNA against human genes
Time to read-out: 3 days
Read-out: 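Imaged Hoechst DNA stain sorts each cell into a cycle phase by DNA amount; per plate, G2 fraction set to 0% for non-targeting and 100% for GMNN siRNA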
Reading the numbers: G2 robust z-score: higher = more G2 cells, more excess DNA replication
Active means: 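An siRNA counts as active if its G2 robust z-score lies at least 5 MADs above the screen median; here such calls match roughly 38% of GMNN control or more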
In all, the deposit lists about 59,000 reagents; this is a random part of them. About 1,550 of all reagents (2.6%) count as active. 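G2 share is only a proxy for re-replication; each gene was hit by three separate siRNAs, and active genes were retested.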 The numbers tell different reagents against one gene apart. Not all columns of the deposit are shown. Reagent sequences are not shown. Not stated in the record: the amount of reagent.

{"gene knocked down": "ZNF19 (zinc finger protein 19)", "reagent": 1, "G2 robust z-score": -0.339, "activity call": "inactive"}
{"gene knocked down": "ZNF19 (zinc finger protein 19)", "reagent": 2, "G2 robust z-score": 0.573, "activity call": "inactive"}
{"gene knocked down": "ZNF19 (zinc finger protein 19)", "reagent": 3, "G2 robust z-score": 1.22, "activity call": "inactive"}
{"gene knocked down": "CMTM8 (CKLF like MARVEL transmembrane domain containing 8)", "reagent": 1, "G2 robust z-score": 3.92, "activity call": "inactive"}
{"gene knocked down": "CMTM8 (CKLF like MARVEL transmembrane domain containing 8)", "reagent": 2, "G2 robust z-score": -1.07, "activity call": "inactive"}
{"gene knocked down": "CMTM8 (CKLF like MARVEL transmembrane domain containing 8)", "reagent": 3, "G2 robust z-score": 0.568, "activity call": "inactive"}
{"gene knocked down": "FBXO46 (F-box protein 46)", "reagent": 1, "G2 robust z-score": 3.83, "activity call": "inactive"}
{"gene knocked down": "FBXO46 (F-box protein 46)", "reagent": 2, "G2 robust z-score": 0.198, "activity call": "inactive"}
{"gene knocked down": "FBXO46 (F-box protein 46)", "reagent": 3, "G2 robust z-score": -0.184, "activity call": "inactive"}
{"gene knocked down": "KIF20B (kinesin family member 20B)", "reagent": 1, "G2 robust z-score": 0.0703, "activity call": "inactive"}
{"gene knocked down": "KIF20B (kinesin family member 20B)", "reagent": 2, "G2 robust z-score": -0.674, "activity call": "inactive"}
{"gene knocked down": "KIF20B (kinesin family member 20B)", "reagent": 3, "G2 robust z-score": -0.857, "activity call": "inactive"}

Ordered by “G2 robust z-score” (lowest first): some entries from above
{"gene knocked down": "KIF20B (kinesin family member 20B)", "reagent": 2, "G2 robust z-score": -0.674, "activity call": "inactive"}
{"gene knocked down": "FBXO46 (F-box protein 46)", "reagent": 3, "G2 robust z-score": -0.184, "activity call": "inactive"}
{"gene knocked down": "KIF20B (kinesin family member 20B)", "reagent": 1, "G2 robust z-score": 0.0703, "activity call": "inactive"}
{"gene knocked down": "FBXO46 (F-box protein 46)", "reagent": 2, "G2 robust z-score": 0.198, "activity call": "inactive"}

Continued.
{"gene knocked down": "STRADA (STE20 related adaptor alpha)", "reagent": 1, "G2 robust z-score": -1.1, "activity call": "inactive"}
{"gene knocked down": "STRADA (STE20 related adaptor alpha)", "reagent": 2, "G2 robust z-score": 5.95, "activity call": "active"}
{"gene knocked down": "STRADA (STE20 related adaptor alpha)", "reagent": 3, "G2 robust z-score": 0.873, "activity call": "inactive"}
{"gene knocked down": "WNK3 (WNK lysine deficient protein kinase 3)", "reagent": 1, "G2 robust z-score": 0.55, "activity call": "inactive"}
{"gene knocked down": "WNK3 (WNK lysine deficient protein kinase 3)", "reagent": 2, "G2 robust z-score": 0.011, "activity call": "inactive"}
{"gene knocked down": "WNK3 (WNK lysine deficient protein kinase 3)", "reagent": 3, "G2 robust z-score": -0.921, "activity call": "inactive"}
{"gene knocked down": "DNAAF5 (dynein axonemal assembly factor 5)", "reagent": 1, "G2 robust z-score": -0.276, "activity call": "inactive"}
{"gene knocked down": "DNAAF5 (dynein axonemal assembly factor 5)", "reagent": 2, "G2 robust z-score": -0.253, "activity call": "inactive"}
{"gene knocked down": "DNAAF5 (dynein axonemal assembly factor 5)", "reagent": 3, "G2 robust z-score": -0.662, "activity call": "inactive"}
{"gene knocked down": "C19orf67 (chromosome 19 open reading frame 67)", "reagent": 1, "G2 robust z-score": 1.73, "activity call": "inactive"}
{"gene knocked down": "C19orf67 (chromosome 19 open reading frame 67)", "reagent": 2, "G2 robust z-score": 1.49, "activity call": "inactive"}
{"gene knocked down": "C19orf67 (chromosome 19 open reading frame 67)", "reagent": 3, "G2 robust z-score": -0.506, "activity call": "inactive"}
{"gene knocked down": "RTF1 (RTF1 homolog, Paf1/RNA polymerase II complex component)", "reagent": 1, "G2 robust z-score": -1.03, "activity call": "inactive"}
{"gene knocked down": "RTF1 (RTF1 homolog, Paf1/RNA polymerase II complex component)", "reagent": 2, "G2 robust z-score": -0.877, "activity call": "inactive"}
{"gene knocked down": "RTF1 (RTF1 homolog, Paf1/RNA polymerase II complex component)", "reagent": 3, "G2 robust z-score": -1.21, "activity call": "inactive"}
{"gene knocked down": "FAU (FAU ubiquitin like and ribosomal protein S30 fusion)", "reagent": 1, "G2 robust z-score": 3.92, "activity call": "inactive"}
{"gene knocked down": "FAU (FAU ubiquitin like and ribosomal protein S30 fusion)", "reagent": 2, "G2 robust z-score": 6.94, "activity call": "active"}
{"gene knocked down": "FAU (FAU ubiquitin like and ribosomal protein S30 fusion)", "reagent": 3, "G2 robust z-score": 0.676, "activity call": "inactive"}
